Assay: general procedure: peptide synthesis; Oxime resin (0.96 mmol/g, or Novabiochem 0.62 mmol/g); HBTU, TBTU

Substance: cyclo(N-Me-Arg-Gly-Asp-5-(Asp-aminomethyl)Mamb-D-val)
- step yield (late stage modification step): 55%

Substance: 3,5-bis(Cbz-Asp(OtBu)-aminomethyl)benzoyl-D-Val-N-Me-Arg-Gly-OBzl
- step yield (coupling step): 22%
- final HPLC purity (coupling step, Analytical HPLC Method C): area %=86.5%

Substance: cyclo(N-Me-Arg(Tos)-Gly-Asp(OtBu)-5-(Asp(OtBu)-aminomethyl)Mamb-D-val)
- cyclisation yield (cyclisation step): 58%
- final HPLC purity (cyclisation step, Analytical HPLC Method B): area %=99%

Substance: cyclo{N-Me-Arg-Gly-Asp-Mamb-D-Lys([2-[[[5-[carbonyl]-2-pyridinyl]hydrazono]methyl]-benzenesulfonic acid])}
- conjugation yield (conjugation step): 49%
- final HPLC purity (conjugation step, Analytical HPLC Method A): area %=89%

Substance: 3,5-bis(Asp(OtBu)-aminomethyl)benzoyl-D-Val-N-Me-Arg-Gly-OH
- crude HPLC purity (late stage modification step, Analytical HPLC Method B): area %=98%
